In the supplement of paper PMC6078165:
Values are relative to the signal before dosing, not to a vehicle control; the signal also falls without drug.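 Fibroblast labels denote human fibroblasts, mainly primary ones from uterus (C12385, HUF), lung (H6013), bone (Hs27A), adrenal (HADF) and skin (WS1), plus mammary HMF and breast cancer-associated Hs343T. Cancer cells are basal-like or mesenchymal-like triple-negative breast cancer lines. A hit is a response shift exceeding 3x replicate standard deviation. The tissue of the other fibroblasts is not given here.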

Tested on: MDAMB231
Assay: relative JC-1 red fluorescence (viability) vs pre-drug, coculture with fibroblast (fraction); higher = more viable cancer cells
Method: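 JC-1 labelled TNBC cells cocultured 1:1 (1,500 cells each) with CellTrace Violet stained primary or stromal fibroblasts in 384-well plates in FluoroBrite medium, treated with one of 42 anticancer drugs at 0.1, 1, 10 or 100 uM. JC-1 red fluorescence (mitochondrial integrity in cancer cells only) was read by plate reader every 8 h for 72 h. Values are normalised to each well's pre-drug value. The stock of one drug was tenfold lower, so its dose labels may be too high.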

C#Cc1cccc(Nc2ncnc3cc(OCCOC)c(OCCOC)cc23)c1 [Erlotinib]
relative JC-1 red fluorescence
Settings | 8 h | 16 h | 24 h | 32 h | 40 h | 48 h | 56 h | 64 h | 72 h
0.1 µM, coculture fibroblast: C12385 | 0.781 | 0.749 | 0.681 | 0.673 | 0.628 | 0.605 | 0.558 | 0.552 | 0.537
0.1 µM, coculture fibroblast: H6013 | 0.9027 | 0.847 | 0.822 | 0.809 | 0.776 | 0.73 | 0.72 | 0.686 | 0.637
0.1 µM, coculture fibroblast: H6019 | 0.749 | 0.6955 | 0.626 | 0.629 | 0.584 | 0.567 | 0.518 | 0.502 | 0.463
0.1 µM, coculture fibroblast: H6076 | 0.8927 | 0.814 | 0.747 | 0.714 | 0.676 | 0.642 | 0.611 | 0.582 | 0.5672
0.1 µM, coculture fibroblast: H6231 | 0.913 | 0.894 | 0.822 | 0.764 | 0.72 | 0.677 | 0.633 | 0.61 | 0.571
0.1 µM, coculture fibroblast: HADF | 0.894 | 0.8356 | 0.789 | 0.753 | 0.716 | 0.673 | 0.671 | 0.655 | 0.61603
0.1 µM, coculture fibroblast: HCFa | 0.895 | 0.824 | 0.786 | 0.763 | 0.72 | 0.684 | 0.654 | 0.634 | 0.595
0.1 µM, coculture fibroblast: HCPF | 0.927 | 0.821 | 0.739 | 0.711 | 0.651 | 0.602 | 0.567 | 0.537 | 0.512
0.1 µM, coculture fibroblast: HHSteC | 0.9002 | 0.853 | 0.8046 | 0.7487 | 0.704 | 0.669 | 0.626 | 0.601 | 0.557
0.1 µM, coculture fibroblast: HMF | 0.8681 | 0.7951 | 0.729 | 0.6903 | 0.6496 | 0.608 | 0.567 | 0.545 | 0.527
0.1 µM, coculture fibroblast: HPFa | 0.9431 | 0.8898 | 0.8211 | 0.7764 | 0.7513 | 0.722 | 0.662 | 0.625 | 0.5619
0.1 µM, coculture fibroblast: HUF | 0.865 | 0.805 | 0.868 | 0.791 | 0.762 | 0.763 | 0.724 | 0.737 | 0.735
0.1 µM, coculture fibroblast: Hs5 | 0.912 | 0.847 | 0.796 | 0.752 | 0.703 | 0.647 | 0.602 | 0.569 | 0.542
0.1 µM, coculture fibroblast: Hs27A | 0.8816 | 0.82687 | 0.792 | 0.754 | 0.701 | 0.605 | 0.637 | 0.615 | 0.563
0.1 µM, coculture fibroblast: Hs343T | 0.895 | 0.82 | 0.762 | 0.723 | 0.675 | 0.63 | 0.58 | 0.556 | 0.527
0.1 µM, coculture fibroblast: WS1 | 0.758 | 0.701 | 0.586 | 0.591 | 0.545 | 0.513 | 0.46 | 0.446 | 0.421
1 µM, coculture fibroblast: C12385 | 0.7689 | 0.77 | 0.704 | 0.7247 | 0.593 | 0.421 | 0.401 | 0.414 | 0.413
1 µM, coculture fibroblast: H6013 | 0.906 | 0.854 | 0.8145 | 0.804 | 0.782 | 0.758 | 0.7703 | 0.7343 | 0.6943
1 µM, coculture fibroblast: H6019 | 0.78 | 0.768 | 0.752 | 0.765 | 0.727 | 0.7294 | 0.696 | 0.688 | 0.64
1 µM, coculture fibroblast: H6076 | 0.8979 | 0.8488 | 0.8345 | 0.81632 | 0.7856 | 0.7578 | 0.743 | 0.7159 | 0.7044
1 µM, coculture fibroblast: H6231 | 0.94 | 0.887 | 0.868 | 0.841 | 0.803 | 0.773 | 0.75 | 0.738 | 0.71
1 µM, coculture fibroblast: HADF | 0.9239 | 0.8763 | 0.8471 | 0.824 | 0.783 | 0.732 | 0.734 | 0.722 | 0.68
1 µM, coculture fibroblast: HCFa | 0.9017 | 0.842 | 0.823 | 0.795 | 0.747 | 0.71 | 0.684 | 0.664 | 0.622
1 µM, coculture fibroblast: HCPF | 0.879 | 0.838 | 0.818 | 0.806 | 0.75 | 0.717 | 0.693 | 0.652 | 0.638
1 µM, coculture fibroblast: HHSteC | 0.8968 | 0.874 | 0.851 | 0.826 | 0.803 | 0.776 | 0.745 | 0.728 | 0.688
1 µM, coculture fibroblast: HMF | 0.8742 | 0.844 | 0.848 | 0.829 | 0.808 | 0.789 | 0.782 | 0.776 | 0.762
1 µM, coculture fibroblast: HPFa | 0.935 | 0.9103 | 0.8783 | 0.8337 | 0.818 | 0.793 | 0.7489 | 0.7254 | 0.6854
1 µM, coculture fibroblast: HUF | 0.85 | 0.762 | 0.772 | 0.7089 | 0.6593 | 0.648 | 0.613 | 0.588 | 0.569
1 µM, coculture fibroblast: Hs5 | 0.9 | 0.859 | 0.843 | 0.804 | 0.777 | 0.735 | 0.711 | 0.684 | 0.66
1 µM, coculture fibroblast: Hs27A | 0.89636 | 0.869 | 0.842 | 0.822 | 0.781 | 0.702 | 0.723 | 0.7 | 0.656
1 µM, coculture fibroblast: Hs343T | 0.88 | 0.823 | 0.803 | 0.777 | 0.7351 | 0.69559 | 0.6688 | 0.6523 | 0.634
1 µM, coculture fibroblast: WS1 | 0.7483 | 0.743 | 0.6508 | 0.683 | 0.671 | 0.649 | 0.616 | 0.597 | 0.566
10 µM, coculture fibroblast: C12385 | 0.7747 | 0.8017 | 0.6578 | 0.771 | 0.754 | 0.737 | 0.7136 | 0.708 | 0.702
10 µM, coculture fibroblast: H6013 | 0.9024 | 0.882 | 0.857 | 0.869 | 0.85 | 0.824 | 0.853 | 0.837 | 0.824
10 µM, coculture fibroblast: H6019 | 0.889 | 0.782 | 0.75 | 0.727 | 0.794 | 0.77 | 0.739 | 0.805 | 0.765
10 µM, coculture fibroblast: H6076 | 0.938 | 0.922 | 0.907 | 0.908 | 0.91 | 0.891 | 0.8913 | 0.8796 | 0.8905
10 µM, coculture fibroblast: H6231 | 0.948 | 0.981 | 0.937 | 0.904 | 0.876 | 0.868 | 0.808 | 0.794 | 0.755
10 µM, coculture fibroblast: HADF | 0.918 | 0.9114 | 0.886 | 0.897 | 0.887 | 0.812 | 0.849 | 0.843 | 0.813
10 µM, coculture fibroblast: HCFa | 0.939 | 0.941 | 0.951 | 0.962 | 0.922 | 0.813 | 0.901 | 0.869 | 0.819
10 µM, coculture fibroblast: HCPF | 0.862 | 0.927 | 0.886 | 0.878 | 0.849 | 0.824 | 0.807 | 0.771 | 0.762
10 µM, coculture fibroblast: HHSteC | 0.915 | 0.903 | 0.877 | 0.864 | 0.854 | 0.812 | 0.805 | 0.792 | 0.771
10 µM, coculture fibroblast: HMF | 0.9787 | 0.9661 | 0.9394 | 0.93 | 0.917 | 0.896 | 0.88 | 0.857 | 0.853
10 µM, coculture fibroblast: HPFa | 0.9724 | 0.9725 | 0.947 | 0.932 | 0.925 | 0.891 | 0.864 | 0.856 | 0.83
10 µM, coculture fibroblast: HUF | 0.856 | 0.7891 | 0.802 | 0.746 | 0.709 | 0.696 | 0.662 | 0.665 | 0.652
10 µM, coculture fibroblast: Hs5 | 0.957 | 0.926 | 0.913 | 0.898 | 0.874 | 0.833 | 0.808 | 0.7947 | 0.786
10 µM, coculture fibroblast: Hs27A | 0.912 | 0.902 | 0.8723 | 0.853 | 0.82 | 0.709 | 0.767 | 0.757 | 0.718
10 µM, coculture fibroblast: Hs343T | 0.929 | 0.913 | 0.886 | 0.883 | 0.866 | 0.857 | 0.833 | 0.821 | 0.813
10 µM, coculture fibroblast: WS1 | 0.773 | 0.775 | 0.662 | 0.73 | 0.729 | 0.718 | 0.694 | 0.688 | 0.665
100 µM, coculture fibroblast: C12385 | 0.84 | 0.887 | 0.844 | 0.893 | 0.773 | 0.344 | 0.314 | 0.339 | 0.364
100 µM, coculture fibroblast: H6013 | 0.938 | 0.879 | 0.911 | 0.79965 | 0.81 | 0.929 | 0.875 | 0.907 | 0.836
100 µM, coculture fibroblast: H6019 | 0.841 | 0.853 | 0.816 | 0.867 | 0.872 | 0.893 | 0.873 | 0.886 | 0.884
100 µM, coculture fibroblast: H6076 | 0.9229 | 0.904 | 0.908 | 0.911 | 0.899 | 0.887 | 0.896 | 0.889 | 0.894
100 µM, coculture fibroblast: H6231 | 0.9522 | 0.931 | 0.905 | 0.893 | 0.867 | 0.846 | 0.841 | 0.822 | 0.801
100 µM, coculture fibroblast: HADF | 0.852 | 0.951 | 0.869 | 0.881 | 0.849 | 0.828 | 0.89 | 0.889 | 0.847
100 µM, coculture fibroblast: HCFa | 0.9882 | 0.854 | 0.894 | 0.932 | 0.931 | 0.957 | 0.966 | 0.942 | 0.905
100 µM, coculture fibroblast: HCPF | 0.9385 | 0.905 | 0.903 | 0.901 | 0.873 | 0.851 | 0.842 | 0.818 | 0.809
100 µM, coculture fibroblast: HHSteC | 0.854 | 0.872 | 0.928 | 0.9392 | 0.834 | 0.918 | 0.908 | 0.877 | 0.871
100 µM, coculture fibroblast: HMF | 0.873 | 0.912 | 0.817 | 0.795 | 0.943 | 0.933 | 0.933 | 0.919 | 0.91
100 µM, coculture fibroblast: HPFa | 0.9937 | 0.837 | 0.947 | 0.892 | 0.718 | 0.891 | 0.853 | 0.968 | 0.955
100 µM, coculture fibroblast: HUF | 0.898 | 0.866 | 0.903 | 0.864 | 0.837 | 0.84 | 0.803 | 0.806 | 0.792
100 µM, coculture fibroblast: Hs5 | 0.919 | 0.895 | 0.8929 | 0.878 | 0.86 | 0.832 | 0.822 | 0.805 | 0.7968
100 µM, coculture fibroblast: Hs27A | 0.932 | 0.915 | 0.858 | 0.866 | 0.965 | 0.8979 | 0.954 | 0.959 | 0.92
100 µM, coculture fibroblast: Hs343T | 0.945 | 0.929 | 0.937 | 0.937 | 0.921 | 0.891 | 0.874 | 0.84853 | 0.837
100 µM, coculture fibroblast: WS1 | 0.787 | 0.794 | 0.7371 | 0.793 | 0.782 | 0.78 | 0.7679 | 0.763 | 0.754
